Results are given in words; binding and its absence hold for the method and conditions named. Binding seen in cells or lysates may run through a third protein. Some results given as binding are weak or reduced against the parent protein; the word gives no strength.
What follows are substances tested against Glucocorticoid Receptor (mouse (endogenous in primary murine macrophages and RAW264.7)) (UniProt P06537) (assay: co-IP).

Protein sequences, listed by entry. Tags and fused reporters are not part of them.
UniProt P06537: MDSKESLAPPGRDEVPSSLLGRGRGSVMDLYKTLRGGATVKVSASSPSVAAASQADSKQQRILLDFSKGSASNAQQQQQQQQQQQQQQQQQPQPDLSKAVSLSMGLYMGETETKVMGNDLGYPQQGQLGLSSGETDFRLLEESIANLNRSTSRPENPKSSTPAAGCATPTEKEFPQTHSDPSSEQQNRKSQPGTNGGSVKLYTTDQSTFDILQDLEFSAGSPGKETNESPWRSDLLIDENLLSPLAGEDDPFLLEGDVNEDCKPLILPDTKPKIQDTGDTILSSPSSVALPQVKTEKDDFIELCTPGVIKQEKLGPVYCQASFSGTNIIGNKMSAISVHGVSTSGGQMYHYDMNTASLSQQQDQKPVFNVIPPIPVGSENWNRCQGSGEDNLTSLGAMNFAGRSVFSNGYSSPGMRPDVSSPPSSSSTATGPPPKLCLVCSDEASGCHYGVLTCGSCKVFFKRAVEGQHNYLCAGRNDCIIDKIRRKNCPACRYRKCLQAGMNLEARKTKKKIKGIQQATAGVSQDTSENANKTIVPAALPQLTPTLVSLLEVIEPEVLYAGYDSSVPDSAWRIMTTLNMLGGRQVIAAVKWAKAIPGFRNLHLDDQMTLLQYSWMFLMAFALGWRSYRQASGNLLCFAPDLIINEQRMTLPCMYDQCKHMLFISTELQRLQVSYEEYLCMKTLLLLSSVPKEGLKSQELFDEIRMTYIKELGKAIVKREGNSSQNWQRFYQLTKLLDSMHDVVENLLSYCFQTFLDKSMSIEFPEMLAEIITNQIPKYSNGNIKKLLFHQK
UniProt Q61466: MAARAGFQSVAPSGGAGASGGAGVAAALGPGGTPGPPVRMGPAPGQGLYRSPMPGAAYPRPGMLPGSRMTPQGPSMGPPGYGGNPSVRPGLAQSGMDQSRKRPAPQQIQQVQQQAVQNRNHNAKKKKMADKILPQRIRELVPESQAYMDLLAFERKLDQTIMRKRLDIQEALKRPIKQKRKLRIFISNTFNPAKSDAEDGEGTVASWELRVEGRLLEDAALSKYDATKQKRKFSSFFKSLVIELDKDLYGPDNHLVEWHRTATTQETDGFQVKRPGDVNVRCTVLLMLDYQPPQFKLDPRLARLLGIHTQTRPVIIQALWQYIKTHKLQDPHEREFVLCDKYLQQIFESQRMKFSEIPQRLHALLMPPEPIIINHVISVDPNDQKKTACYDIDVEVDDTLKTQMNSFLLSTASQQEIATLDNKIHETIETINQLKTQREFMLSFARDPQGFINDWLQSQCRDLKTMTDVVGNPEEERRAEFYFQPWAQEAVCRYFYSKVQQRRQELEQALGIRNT
UniProt Q3TKT4: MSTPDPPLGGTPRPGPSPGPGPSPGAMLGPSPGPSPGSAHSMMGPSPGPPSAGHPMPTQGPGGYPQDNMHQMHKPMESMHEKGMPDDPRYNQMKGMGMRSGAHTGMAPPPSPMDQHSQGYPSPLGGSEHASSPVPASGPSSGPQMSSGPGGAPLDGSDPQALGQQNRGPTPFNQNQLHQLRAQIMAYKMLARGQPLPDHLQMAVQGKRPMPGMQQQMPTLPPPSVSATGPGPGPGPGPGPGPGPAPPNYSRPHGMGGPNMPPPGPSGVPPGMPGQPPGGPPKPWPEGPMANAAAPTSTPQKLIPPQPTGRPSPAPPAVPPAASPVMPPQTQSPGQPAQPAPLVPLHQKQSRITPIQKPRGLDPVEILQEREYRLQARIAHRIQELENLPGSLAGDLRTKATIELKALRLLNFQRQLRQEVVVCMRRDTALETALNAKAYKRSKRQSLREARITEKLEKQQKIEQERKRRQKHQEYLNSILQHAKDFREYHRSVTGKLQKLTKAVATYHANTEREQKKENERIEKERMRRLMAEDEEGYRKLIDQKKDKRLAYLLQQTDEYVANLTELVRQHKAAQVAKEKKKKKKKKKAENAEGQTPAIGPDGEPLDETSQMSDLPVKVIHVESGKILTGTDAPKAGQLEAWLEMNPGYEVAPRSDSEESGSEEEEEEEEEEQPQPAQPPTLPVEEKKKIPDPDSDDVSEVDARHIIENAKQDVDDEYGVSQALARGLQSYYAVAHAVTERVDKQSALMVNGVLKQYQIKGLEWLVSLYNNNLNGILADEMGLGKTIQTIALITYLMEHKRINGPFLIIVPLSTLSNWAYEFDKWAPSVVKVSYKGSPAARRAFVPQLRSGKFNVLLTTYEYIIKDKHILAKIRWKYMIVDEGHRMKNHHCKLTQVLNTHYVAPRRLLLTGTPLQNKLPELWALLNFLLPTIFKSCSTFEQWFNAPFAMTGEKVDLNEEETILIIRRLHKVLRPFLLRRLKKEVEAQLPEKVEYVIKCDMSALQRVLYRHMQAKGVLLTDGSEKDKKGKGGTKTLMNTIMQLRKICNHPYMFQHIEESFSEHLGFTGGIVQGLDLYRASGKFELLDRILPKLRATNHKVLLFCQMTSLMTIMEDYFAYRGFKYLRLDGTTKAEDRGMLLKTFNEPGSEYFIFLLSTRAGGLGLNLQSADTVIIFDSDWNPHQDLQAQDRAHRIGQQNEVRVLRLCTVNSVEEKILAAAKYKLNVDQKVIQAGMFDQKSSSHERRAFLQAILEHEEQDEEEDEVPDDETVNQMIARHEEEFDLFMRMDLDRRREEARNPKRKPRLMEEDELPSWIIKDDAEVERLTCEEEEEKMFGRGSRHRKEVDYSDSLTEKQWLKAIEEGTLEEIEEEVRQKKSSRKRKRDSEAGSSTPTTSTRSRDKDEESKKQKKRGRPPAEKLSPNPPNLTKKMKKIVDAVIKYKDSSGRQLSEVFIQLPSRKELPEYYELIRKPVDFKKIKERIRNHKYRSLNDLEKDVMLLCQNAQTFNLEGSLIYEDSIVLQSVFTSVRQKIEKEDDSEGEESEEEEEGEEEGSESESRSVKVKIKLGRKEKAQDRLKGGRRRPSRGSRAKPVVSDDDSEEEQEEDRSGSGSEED
UniProt O54941: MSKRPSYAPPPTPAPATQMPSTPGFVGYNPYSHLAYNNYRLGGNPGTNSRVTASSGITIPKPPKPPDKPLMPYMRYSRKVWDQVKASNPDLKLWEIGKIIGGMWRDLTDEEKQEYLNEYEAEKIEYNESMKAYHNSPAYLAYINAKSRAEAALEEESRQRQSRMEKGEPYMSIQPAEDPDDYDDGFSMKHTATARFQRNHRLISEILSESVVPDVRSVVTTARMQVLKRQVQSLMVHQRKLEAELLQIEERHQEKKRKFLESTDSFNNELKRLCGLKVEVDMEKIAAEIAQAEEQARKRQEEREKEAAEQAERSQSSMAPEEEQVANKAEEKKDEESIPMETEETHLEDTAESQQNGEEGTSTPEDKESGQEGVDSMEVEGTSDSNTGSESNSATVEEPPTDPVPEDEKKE

Q: With “SMARCD1 (BAF60A) (from UniProt Q61466 1-515)” as the substance, how does the binding read?
A: The binding was “binds”.

Q: With “SMARCA4 (BRG1) (from UniProt Q3TKT4 1-1613) (enzyme)” as the substance, how does the binding read?
A: The binding was “binds”.

Q: “SMARCE1 (BAF57) (from UniProt O54941 1-411)” was tested. Which binding did it give?
A: The binding was “binds”.

— doi:10.1101/2021.12.13.472398
